Reference: patent publication EP2698385A1, “Detection of synthetic cannabinoids” (priority 2012, dated 2014)

What was measured:
Assay type in all cases: binding, sheep
Antibody to Immunogen IV = tested on: Antibody to Immunogen IV
Description: (§1) An aqueous solution of each immunogen was formulated with Freund's Complete Adjuvant (FCA) to form an emulsion consisting of 2mg/ml* immunogen in 50% (v/v) FCA. Three sheep were immunised with this emulsion (1° immunisation), 0.25ml being intramuscularly injected at each of four sites in the flank of each animal. Subsequent immunizations (boosts) contained 1mg/ml* immunogen. All boosts were emulsified in 50% (v/v) Freund's Incomplete Adjuvant (FIA) and were administered in the same manner as the 1° immunisation, at monthly intervals. Blood sampling took place 7 to 14 days after each boost. *The general procedure for immunogen administration is outlined above, however, it was necessary to deviate from this protocol in some cases, due to reduced immunogen concentrations (Immunogens II, IV, VII and VIII) and/or amount available (Immunogen VIII). Any deviations from the protocol described are outlined in Table 1A below and highlighted in bold. Table 1A: Amount and volume of immunogens administered for primary and subsequent boosts
(§2) The wells of an enhanced binding 96 well polystyrene microtiter plate were coated with IgG fraction of antiserum raised to Immunogen I or II, diluted in 10mM Tris, pH8.5 (125µl/well). The appropriate antibody coating dilution was determined using standard ELISA checkerboard techniques. The plate was incubated overnight at 4°C, washed 4 times over 10 minutes with Tris buffered saline containing Tween 20 (TBST) and tapped dry. Standard solutions (JWH-018 for Immunogens I and II) were applied at 0, 0.625, 1.25, 2.5, 5, 10, 20 and 40ng/ml and 50µl of each was added to the appropriate wells. 75µl of conjugate (appropriate hapten-HRP) diluted in Tris buffer (pH 7.2) containing EDTA, D-mannitol, sucrose, thimerosal and BSA, was added to each of the wells. The appropriate dilution of conjugate was also determined using standard ELISA checkerboard techniques. The plate was incubated at 25°C for 1 hour. Excess unbound conjugate was removed by washing 6 times over a 10 minute period with TBST. 125µl of tetramethylbenzidine (TMB) substrate solution was added to each well of the plate that was then incubated for 20 minutes in the dark at room temperature. The reaction was terminated by addition of 125µl 0.2M H2SO4 to each well. The absorbance was then measured at 450nm using a microtiter plate reader. The data are inputted to a computer program called 'KC Junior'. It is a 4 parameter fit curve and allow the calculatation of concentrations between the standard runs. This program is used to calculate the IC50s by dividing the 0ng/ml OD value by 2 and obtaining the concentration value from the curve for this OD.
(§3) In a similar manner to that described above, the wells of a 96-well microtiter plate were coated with the IgG fraction of the antiserum raised to Immunogens IV, VII or VIII. Standard solutions (JWH-018 for Immunogens IV and VIII, JWH-015 for Immunogen VII) were prepared in TBST at 0, 1.25, 2.5, 5, 10, 20, 40 and 80ng/ml and conjugate was employed as detection reagent.
(§4) The data set our in Tables 3 and 4 are generated using antibodies raised against the indicated Immunogens in a competitive binding assay with the indicated tracers, using the indicated standards: Table 2
(§5) A450 = absorbance at 450nm B = absorbance at 450nm at xng/ml standard concentration B0 = absorbance at 450nm at 0ng/ml standard concentration IC50 = standard concentration which produces 50% B/B0
(§6) In order to determine the specificity of the competitive ELISAs, standard solutions of a range of structurally similar synthetic cannabinoids and their metabolites were prepared in TBST. Using the calibration curves generated and employing a single level of cross reactants, these were used to determine the cross-reactivity of each immunoassay with these substances. […]

[1] = tested on: Antibody to Immunogen VIII
Description: as §1, §2, §3, §4, §5, §6

Antibody to Immunogen I = tested on: Antibody to Immunogen I
Description: as §1, §2
In a similar manner to that described above, the wells of a 96-well microtiter plate were coated with the IgG fraction of the antiserum raised to Immunogens I or II. Standard solutions (JWH-018 for Immunogen I and II) were applied at 0, 0.625, 1.25, 2.5, 5, 10, 20 and 40ng/ml and conjugate was employed as detection reagent.
as §4, §5, §6

Antibody to Immunogen II = assay: Competitive ELISA (Example 36), antibody RS1833B12, tracer ESC4555/LK959, standard JWH-018
Description: as §1
as §2, with “The” for “The wells of an enhanced binding 96 well polystyrene microtiter plate were coated with IgG fraction of antiserum raised to Immunogen I or II, diluted in 10mM Tris, pH8.5 (125µl/well). The”, “Standard solutions (JWH-018 for Immunogens I and II) were applied at 0, 0.625, 1.25, 2.5, 5, 10, 20 and 40ng/ml and 50µl of each was added to the appropriate wells.” left out, “runs.” for “runs. This program is used to calculate the IC50s by dividing the 0ng/ml OD value by 2 and obtaining the concentration value from the curve for this OD.”
In a similar manner to that described above, the wells of a 96-well microtiter plate were coated with the IgG fraction of the antiserum raised to Immunogens I or II.
as §4
Using the calibration curves generated and employing a single level of cross reactants, these were used to determine the cross-reactivity of each immunoassay with these substances. These are the standards used for the IC50 and cross-reactivity data generation • Immunogen I - JWH-018 • Immunogen II - JWH-018 • Immunogen IV - JWH-018 • Immunogen VII - JWH-015 • Immunogen VIII - JWH-018 Table 4: Cross reactivity of the competitive ELISAs for synthetic cannabinoids and their metabolites

What does the source list for `CCCCCn1cc(C(=O)c2cccc3ccccc23)c2ccccc21` [JWH-018]?
A450 (Antibody to Immunogen IV; JWH-018 standard 1.25 ng/ml): 1.479; A450 (Antibody to Immunogen IV; JWH-018 standard 2.5 ng/ml): 1.1625; A450 (Antibody to Immunogen IV; JWH-018 standard 5 ng/ml): 0.7155; A450 (Antibody to Immunogen IV; JWH-018 standard 10 ng/ml): 0.442; A450 (Antibody to Immunogen IV; JWH-018 standard 20 ng/ml): 0.2645; A450 (Antibody to Immunogen IV; JWH-018 standard 40 ng/ml): 0.1735; A450 (Antibody to Immunogen IV; JWH-018 standard 80 ng/ml): 0.116; A450 ([1]; JWH-018 standard 1 ng/ml): 1.09; A450 ([1]; JWH-018 standard 3 ng/ml): 0.8765; A450 ([1]; JWH-018 standard 5 ng/ml): 0.708; A450 ([1]; JWH-018 standard 10 ng/ml): 0.5515; A450 ([1]; JWH-018 standard 20 ng/ml): 0.4015; A450 ([1]; JWH-018 standard 40 ng/ml): 0.3095; A450 ([1]; JWH-018 standard 80 ng/ml): 0.217; A450 (Antibody to Immunogen I; JWH-018 standard 0.625 ng/ml): 1.247; A450 (Antibody to Immunogen I; JWH-018 standard 1.25 ng/ml): 1.004; A450 (Antibody to Immunogen I; JWH-018 standard 2.5 ng/ml): 0.707; A450 (Antibody to Immunogen I; JWH-018 standard 5 ng/ml): 0.504; A450 (Antibody to Immunogen I; JWH-018 standard 10 ng/ml): 0.323; A450 (Antibody to Immunogen I; JWH-018 standard 20 ng/ml): 0.22; A450 (Antibody to Immunogen I; JWH-018 standard 40 ng/ml): 0.15; A450 (Antibody to Immunogen II; JWH-018 standard 0.625 ng/ml): 0.984; A450 (Antibody to Immunogen II; JWH-018 standard 1.25 ng/ml): 0.7685; A450 (Antibody to Immunogen II; JWH-018 standard 2.5 ng/ml): 0.499; A450 (Antibody to Immunogen II; JWH-018 standard 5 ng/ml): 0.3615; A450 (Antibody to Immunogen II; JWH-018 standard 10 ng/ml): 0.2525; A450 (Antibody to Immunogen II; JWH-018 standard 20 ng/ml): 0.1855; A450 (Antibody to Immunogen II; JWH-018 standard 40 ng/ml): 0.149

Read-outs that look alike come from different tables or passages of the source.
